Source: paper PMC11177981
No constants are given. Whether binding was seen depends on the method and setting. For some of these results: Binding seen in cells or lysates may run through a third protein. Some entries that bind do so weakly or less than the wild type. For some of these results: Where a sequence is shown, tags or fusion partners need not be part of it.

Tests used:
[1] = target: T1, Myc-GLUT4-GFP reporter stably expressed in 3T3-L1 adipocytes (UniProt P14672); assay: co-IP; anti-Myc magnetic beads on lysate (50mM Tris HCl, 150mM NaCl, 1mM EDTA, 1% TRITON X-100) of 3T3-L1 adipocytes stably expressing Myc-GLUT4-GFP, stimulated with insulin for various times; 3T3 WT without Myc-GLUT4 as negative control
T1 sequence: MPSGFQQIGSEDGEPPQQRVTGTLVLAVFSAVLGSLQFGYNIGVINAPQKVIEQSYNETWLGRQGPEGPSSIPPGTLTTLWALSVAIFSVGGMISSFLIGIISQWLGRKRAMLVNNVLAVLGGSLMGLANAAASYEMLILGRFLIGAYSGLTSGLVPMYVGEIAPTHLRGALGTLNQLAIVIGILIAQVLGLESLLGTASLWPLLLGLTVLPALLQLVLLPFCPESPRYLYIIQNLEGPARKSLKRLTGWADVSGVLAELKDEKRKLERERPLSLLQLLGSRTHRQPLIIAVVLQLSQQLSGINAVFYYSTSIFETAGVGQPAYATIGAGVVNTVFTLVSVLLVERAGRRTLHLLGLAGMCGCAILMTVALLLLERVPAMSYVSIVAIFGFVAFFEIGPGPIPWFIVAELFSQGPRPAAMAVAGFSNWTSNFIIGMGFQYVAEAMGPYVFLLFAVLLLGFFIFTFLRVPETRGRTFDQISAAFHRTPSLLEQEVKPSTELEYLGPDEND

[2] = target: T2, mitochondrial antiviral-signaling protein (MAVS), endogenous in C2C12 cells (mouse (endogenous in C2C12)), Q8VCF0; assay: native gel or EMSA; C2C12 lysate in 2% DDM, 25mM HEPES, 150mM NaCl on 4-16% NativePAGE, blot for MAVS; Ubxn9+/+, Ubxn9-/-, Slc2a4+/+ and Slc2a4-/- cells, 3p-hpRNA for 6 hr; conditions: remark: other sources report otherwise
T2 chain: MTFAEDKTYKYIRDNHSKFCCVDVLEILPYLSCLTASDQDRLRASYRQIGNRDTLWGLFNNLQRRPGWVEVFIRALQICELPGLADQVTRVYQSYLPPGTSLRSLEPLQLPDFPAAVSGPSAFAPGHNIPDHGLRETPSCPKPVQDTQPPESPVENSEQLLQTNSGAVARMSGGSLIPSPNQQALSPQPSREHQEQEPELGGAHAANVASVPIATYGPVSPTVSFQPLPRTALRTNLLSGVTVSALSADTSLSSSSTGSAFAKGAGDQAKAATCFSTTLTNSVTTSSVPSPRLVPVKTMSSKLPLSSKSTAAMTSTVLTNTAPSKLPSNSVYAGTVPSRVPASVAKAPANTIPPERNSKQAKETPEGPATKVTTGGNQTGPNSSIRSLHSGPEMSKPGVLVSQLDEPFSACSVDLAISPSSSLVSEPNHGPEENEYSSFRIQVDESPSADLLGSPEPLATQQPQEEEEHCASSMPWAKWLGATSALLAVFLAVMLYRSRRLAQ

[3] = target: T3, FLAG-GLUT4 (human full length) expressed in HEK293T cells (human) (UniProt P14672); assay: co-IP; anti-FLAG magnetic beads on lysate (2% DDM, 25mM HEPES, 150mM NaCl) of HEK293T cells transfected with FLAG-GLUT4 constructs; blot for endogenous RIG-I and UBXN9; vector pcDNA3.1-FLAG as control
T3 sequence: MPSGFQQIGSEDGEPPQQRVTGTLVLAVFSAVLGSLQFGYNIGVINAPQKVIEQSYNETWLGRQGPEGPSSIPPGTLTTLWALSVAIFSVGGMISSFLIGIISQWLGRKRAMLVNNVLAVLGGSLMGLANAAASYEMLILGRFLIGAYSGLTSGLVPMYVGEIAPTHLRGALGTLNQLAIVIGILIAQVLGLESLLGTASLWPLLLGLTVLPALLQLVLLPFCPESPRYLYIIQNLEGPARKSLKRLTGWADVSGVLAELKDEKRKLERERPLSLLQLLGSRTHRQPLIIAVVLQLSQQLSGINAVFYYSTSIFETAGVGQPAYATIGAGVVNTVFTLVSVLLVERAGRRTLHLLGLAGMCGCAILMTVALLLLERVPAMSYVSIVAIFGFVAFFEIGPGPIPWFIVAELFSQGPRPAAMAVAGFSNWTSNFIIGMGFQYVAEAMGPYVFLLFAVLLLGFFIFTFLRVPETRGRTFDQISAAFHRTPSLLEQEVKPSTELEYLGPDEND

[4] = target: T4, FLAG-GLUT4 Arg169Ala (R169A) expressed in HEK293T cells (human) (UniProt P14672); assay: as above
T4 sequence: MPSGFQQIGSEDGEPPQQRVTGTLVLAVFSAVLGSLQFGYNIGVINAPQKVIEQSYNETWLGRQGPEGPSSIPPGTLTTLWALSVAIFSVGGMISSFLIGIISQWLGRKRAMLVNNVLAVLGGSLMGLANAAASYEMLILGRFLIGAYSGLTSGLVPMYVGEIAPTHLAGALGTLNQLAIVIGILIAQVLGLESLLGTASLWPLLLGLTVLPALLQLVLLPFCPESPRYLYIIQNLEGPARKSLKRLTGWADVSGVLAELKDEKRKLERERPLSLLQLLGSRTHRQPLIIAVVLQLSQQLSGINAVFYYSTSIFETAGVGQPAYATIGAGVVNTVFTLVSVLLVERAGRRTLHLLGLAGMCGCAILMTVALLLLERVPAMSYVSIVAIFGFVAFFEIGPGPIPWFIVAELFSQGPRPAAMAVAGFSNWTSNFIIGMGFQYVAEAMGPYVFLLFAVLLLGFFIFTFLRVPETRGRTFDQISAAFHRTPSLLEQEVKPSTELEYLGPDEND

B1: retinoic acid inducible gene I (RIG-I), endogenous in 3T3-L1 adipocytes (protein, UniProt Q6Q899 1-926)
chain: MTAEQRQNLQAFRDYIKKILDPTYILSYMSSWLEDEEVQYIQAEKNNKGPMEAASLFLQYLLKLQSEGWFQAFLDALYHAGYCGLCEAIESWDFQKIEKLEEHRLLLRRLEPEFKATVDPNDILSELSECLINQECEEIRQIRDTKGRMAGAEKMAECLIRSDKENWPKVLQLALEKDNSKFSELWIVDKGFKRAESKADEDDGAEASSIQIFIQEEPECQNLSQNPGPPSEASSNNLHSPLKPRNYQLELALPAKKGKNTIICAPTGCGKTFVSLLICEHHLKKFPCGQKGKVVFFANQIPVYEQQATVFSRYFERLGYNIASISGATSDSVSVQHIIEDNDIIILTPQILVNNLNNGAIPSLSVFTLMIFDECHNTSKNHPYNQIMFRYLDHKLGESRDPLPQVVGLTASVGVGDAKTAEEAMQHICKLCAALDASVIATVRDNVAELEQVVYKPQKISRKVASRTSNTFKCIISQLMKETEKLAKDVSEELGKLFQIQNREFGTQKYEQWIVGVHKACSVFQMADKEEESRVCKALFLYTSHLRKYNDALIISEDAQMTDALNYLKAFFHDVREAAFDETERELTRRFEEKLEELEKVSRDPSNENPKLRDLYLVLQEEYHLKPETKTILFVKTRALVDALKKWIEENPALSFLKPGILTGRGRTNRATGMTLPAQKCVLEAFRASGDNNILIATSVADEGIDIAECNLVILYEYVGNVIKMIQTRGRGRARDSKCFLLTSSADVIEKEKANMIKEKIMNESILRLQTWDEMKFGKTVHRIQVNEKLLRDSQHKPQPVPDKENKKLLCGKCKNFACYTADIRVVETSHYTVLGDAFKERFVCKPHPKPKIYDNFEKKAKIFCAKQNCSHDWGIFVRYKTFEIPVIKIESFVVEDIVSGVQNRHSKWKDFHFERIQFDPAEMSV
binding [1]: binds

B2: mitochondrial antiviral-signaling protein (MAVS), endogenous in C2C12 cells, Q8VCF0 1-503 (protein)
chain: MTFAEDKTYKYIRDNHSKFCCVDVLEILPYLSCLTASDQDRLRASYRQIGNRDTLWGLFNNLQRRPGWVEVFIRALQICELPGLADQVTRVYQSYLPPGTSLRSLEPLQLPDFPAAVSGPSAFAPGHNIPDHGLRETPSCPKPVQDTQPPESPVENSEQLLQTNSGAVARMSGGSLIPSPNQQALSPQPSREHQEQEPELGGAHAANVASVPIATYGPVSPTVSFQPLPRTALRTNLLSGVTVSALSADTSLSSSSTGSAFAKGAGDQAKAATCFSTTLTNSVTTSSVPSPRLVPVKTMSSKLPLSSKSTAAMTSTVLTNTAPSKLPSNSVYAGTVPSRVPASVAKAPANTIPPERNSKQAKETPEGPATKVTTGGNQTGPNSSIRSLHSGPEMSKPGVLVSQLDEPFSACSVDLAISPSSSLVSEPNHGPEENEYSSFRIQVDESPSADLLGSPEPLATQQPQEEEEHCASSMPWAKWLGATSALLAVFLAVMLYRSRRLAQ
binding [2]: binds

B3: retinoic acid inducible gene I (RIG-I), endogenous in HEK293T cells (protein, UniProt O95786 1-925)
chain: MTTEQRRSLQAFQDYIRKTLDPTYILSYMAPWFREEEVQYIQAEKNNKGPMEAATLFLKFLLELQEEGWFRGFLDALDHAGYSGLYEAIESWDFKKIEKLEEYRLLLKRLQPEFKTRIIPTDIISDLSECLINQECEEILQICSTKGMMAGAEKLVECLLRSDKENWPKTLKLALEKERNKFSELWIVEKGIKDVETEDLEDKMETSDIQIFYQEDPECQNLSENSCPPSEVSDTNLYSPFKPRNYQLELALPAMKGKNTIICAPTGCGKTFVSLLICEHHLKKFPQGQKGKVVFFANQIPVYEQQKSVFSKYFERHGYRVTGISGATAENVPVEQIVENNDIIILTPQILVNNLKKGTIPSLSIFTLMIFDECHNTSKQHPYNMIMFNYLDQKLGGSSGPLPQVIGLTASVGVGDAKNTDEALDYICKLCASLDASVIATVKHNLEELEQVVYKPQKFFRKVESRISDKFKYIIAQLMRDTESLAKRICKDLENLSQIQNREFGTQKYEQWIVTVQKACMVFQMPDKDEESRICKALFLYTSHLRKYNDALIISEHARMKDALDYLKDFFSNVRAAGFDEIEQDLTQRFEEKLQELESVSRDPSNENPKLEDLCFILQEEYHLNPETITILFVKTRALVDALKNWIEGNPKLSFLKPGILTGRGKTNQNTGMTLPAQKCILDAFKASGDHNILIATSVADEGIDIAQCNLVILYEYVGNVIKMIQTRGRGRARGSKCFLLTSNAGVIEKEQINMYKEKMMNDSILRLQTWDEAVFREKILHIQTHEKFIRDSQEKPKPVPDKENKKLLCRKCKALACYTADVRVIEECHYTVLGDAFKECFVSRPHPKPKQFSSFEKRAKIFCARQNCSHDWGIHVKYKTFEIPVIKIESFVVEDIATGVQTLYSKWKDFHFEKIPFDPAEMSK
binding [3]: binds | binding [4]: binds
